According to US20180327503A1:
Residue numbers refer to the chain shown, from its start. No constants are given. Whether binding was seen depends on the method and setting. Some entries that bind do so weakly or less than the wild type. For part of these data: Tags and fused reporters may be left off the sequences shown. Blank lines part the entries; values can stand above or below the binder they belong to.

Legend:
[1] = biological target: T1, wild-type IL-7Rα (his-tagged, secreted from HEK293T cells) (human) (UniProt P16871); assay: SPR (ProteOn XPR36), antibody amine-coupled, IL-7Rα at 100 nM
T1 sequence (looked up): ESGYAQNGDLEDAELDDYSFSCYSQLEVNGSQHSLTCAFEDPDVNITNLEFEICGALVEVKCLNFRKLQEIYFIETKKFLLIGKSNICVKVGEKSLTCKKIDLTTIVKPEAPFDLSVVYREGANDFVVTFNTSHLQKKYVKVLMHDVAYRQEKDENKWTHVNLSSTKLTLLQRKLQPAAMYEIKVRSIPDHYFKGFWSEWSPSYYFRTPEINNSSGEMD

[2] = biological target: Human IL-7R-hFc antigen (R&D systems) (human) (UniProt P16871); assay: SPR (Biacore 2000/3000)

- binding [1]: binds
B1: HAL403a (full-length antibody) (antibody, V domains shown)
VH: QVNLRESGGGLVKPGGSLRLSCAASGFTFDDSVMHWVRQAPGKGLEWLSLVGWDGFFTYYADSVKGRFTISRDNTKNLLYLQMNSLRAEDTAVYYCARQGDYMGNNWGQGTLVTVSS
VL: NFMLTQPHSVSGSPGKTVTISCTRSSGSIDSSYVQWYQQRPGNSPTTVIYEDDQRPSGVPDRFSGSIDSSSNSASLTISGLVTEDEADYYCQSYDFHHLVFGGGTKLTVLT

- binding [1]: binds
B2: HAL403b (full-length antibody) (antibody, V domains shown)
VH: B1 VH
VL: B1 VL with Q92M, S93Q, T111C

- binding [2]: binds
B3: C1GM-2 (hIgG2ΔA) (antibody)
heavy: EVQLVESGGGLVKPGGSLRLSCAASGFTFDDSVMHWVRQAPGKGLEWVSLVGWDGFFTYYADSVKGRFTISRDNAKNSLYLQMNSLRAEDTAVYYCARQGDYMGNNWGQGTLVTVSSASTKGPSVFPLAPCSRSTSESTAALGCLVKDYFPEPVTVSWNSGALTSGVHTFPAVLQSSGLYSLSSVVTVPSSNFGTQTYTCNVDHKPSNTKVDKTVAPPVAGPSVFLFPPKPKDTLMISRTPEVTCVVVDVSHEDPEVQFNWYVDGVEVHNAKTKPREEQFNSTFRVVSVLTVVHQDWLNGKEYKCKVSNKGLPSSIEKTISKTKGQPREPQVYTLPPSREEMTKNQVSLTCLVKGFYPSDIAVEWESNGQPENNYKTTPPMLDSDGSFFLYSKLTVDKSRWQQGNVFSCSVMHEALHNHYTQKSLSLSPGK
light: NFMLTQPHSVSESPGKTVTISCTRSSGSIDSSYVQWYQQRPGSSPTTVIYEDDQRPSGVPDRFSGSIDSSSNSASLTISGLKTEDEADYYCQSYDFHHLVFGGGTKLTVLQPKAAPSVTLFPPSSEELQANKATLVCLISDFYPGAVTVAWKADSSPVKAGVETTTPSKQSNNKYAASSYLSLTPEQWKSHRSYSCQVTHEGSTVEKTVAPTECS
